Test results reported in US5683985.
For some assays here: At least one result comes from cells or an extract, where the contact may be indirect. For some assays here: Construct, isoform or probe ends are uncertain for at least one entry.

The chains behind the UniProt entries cited, without tags or fusion partners. Where a name states a change or a piece, a line headed by the entry shows the natural chain unless it says otherwise.
UniProt P15337: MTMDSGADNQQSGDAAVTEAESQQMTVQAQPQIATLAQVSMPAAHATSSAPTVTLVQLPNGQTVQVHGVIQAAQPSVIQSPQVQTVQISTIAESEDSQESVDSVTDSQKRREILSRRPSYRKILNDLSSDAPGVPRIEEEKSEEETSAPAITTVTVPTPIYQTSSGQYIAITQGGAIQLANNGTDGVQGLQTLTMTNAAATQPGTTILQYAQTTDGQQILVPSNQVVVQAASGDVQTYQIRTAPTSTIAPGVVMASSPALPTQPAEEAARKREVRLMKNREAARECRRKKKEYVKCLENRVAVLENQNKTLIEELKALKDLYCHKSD

How the values were obtained:
[1] = system: JUN; assay: EMSA; conditions: 100 mM KCl, purified recombinant protein, label: 32P
[2] = system: AP-1 proteins (JUN/FOS) in PC12 nuclear extract; assay: binding assay; conditions: K2PtCl4 crosslinking, protein in an extract, label: 32P, folded or branched DNA
[3] = target: CREB (CRE-BP) in PC12 nuclear extract (UniProt P15337); assay: EMSA; conditions: crude nuclear extract, protein in an extract
[4] = label: 5'-32P, folded or branched DNA

“ACTCTCTGTGTCTGACTCATGCTCTCTCAGCATGAGTCAGACAC [ligTRE(s)6 dumbbell]”: binds ([1]; PS at 6 linkages within the recognition sequence, PS does not diminish binding, 12.5 mM MgCl2, pH 7.9, folded or branched DNA, variant of ligTRE dumbbell); binds ([2]; PS at 6 linkages within the recognition sequence, major band co-migrates with JUN adduct, variant of ligTRE dumbbell).

“GTAACTCTCTTACCATGACGTCAATTTCTCTCAAATTGACGTCATG [ligCRE(s)6 dumbbell]”: binds ([2]; PS at 6 linkages within the octamer (T(s)GAC(s)GTC(s)A on both strands), major band co-migrates with ligTRE(s)6-JUN product, variant of ligCRE dumbbell).

“AAATTGACGTCATGGTAA (double strand) [CRE 18-mer duplex]”: binds ([3]; label: 5'-32P).

“GTAACTCTCTTACCATGACGTCAATTTCTCTCAAATTGACGTCATG [ligCRE dumbbell]”: binds ([3]; more efficient than other oligomers, label: 32P, folded or branched DNA).

“GTAACTCTCTTACCATGACGTCAATTTCTCTCAAATTGACGTCATG [CRE 46-mer nicked dumbbell]”: binds [3, 4].

“AAATTGACGTCATGGTAACTCTCTTACCATGACGTCAATTT [CRE 41-mer hairpin]”: binds [3, 4].

“ACTCTCTGTGTCTGACTCATGCTCTCTCAGCATGAGTCAGACAC [ligTRE dumbbell]”: binds ([1]; 12.5 mM MgCl2, 50 mM Tris pH 7.9, crosslinks at ~15% of ligTRE(s)6 at 2 mM K2PtCl4, folded or branched …).
